The values that follow come from article PMC9971195.

This assay has as its target T1, CEMIP, bait of the Co-IP with mass-spectrometric peptide sequencing (UniProt Q8WUJ3).
T1 sequence: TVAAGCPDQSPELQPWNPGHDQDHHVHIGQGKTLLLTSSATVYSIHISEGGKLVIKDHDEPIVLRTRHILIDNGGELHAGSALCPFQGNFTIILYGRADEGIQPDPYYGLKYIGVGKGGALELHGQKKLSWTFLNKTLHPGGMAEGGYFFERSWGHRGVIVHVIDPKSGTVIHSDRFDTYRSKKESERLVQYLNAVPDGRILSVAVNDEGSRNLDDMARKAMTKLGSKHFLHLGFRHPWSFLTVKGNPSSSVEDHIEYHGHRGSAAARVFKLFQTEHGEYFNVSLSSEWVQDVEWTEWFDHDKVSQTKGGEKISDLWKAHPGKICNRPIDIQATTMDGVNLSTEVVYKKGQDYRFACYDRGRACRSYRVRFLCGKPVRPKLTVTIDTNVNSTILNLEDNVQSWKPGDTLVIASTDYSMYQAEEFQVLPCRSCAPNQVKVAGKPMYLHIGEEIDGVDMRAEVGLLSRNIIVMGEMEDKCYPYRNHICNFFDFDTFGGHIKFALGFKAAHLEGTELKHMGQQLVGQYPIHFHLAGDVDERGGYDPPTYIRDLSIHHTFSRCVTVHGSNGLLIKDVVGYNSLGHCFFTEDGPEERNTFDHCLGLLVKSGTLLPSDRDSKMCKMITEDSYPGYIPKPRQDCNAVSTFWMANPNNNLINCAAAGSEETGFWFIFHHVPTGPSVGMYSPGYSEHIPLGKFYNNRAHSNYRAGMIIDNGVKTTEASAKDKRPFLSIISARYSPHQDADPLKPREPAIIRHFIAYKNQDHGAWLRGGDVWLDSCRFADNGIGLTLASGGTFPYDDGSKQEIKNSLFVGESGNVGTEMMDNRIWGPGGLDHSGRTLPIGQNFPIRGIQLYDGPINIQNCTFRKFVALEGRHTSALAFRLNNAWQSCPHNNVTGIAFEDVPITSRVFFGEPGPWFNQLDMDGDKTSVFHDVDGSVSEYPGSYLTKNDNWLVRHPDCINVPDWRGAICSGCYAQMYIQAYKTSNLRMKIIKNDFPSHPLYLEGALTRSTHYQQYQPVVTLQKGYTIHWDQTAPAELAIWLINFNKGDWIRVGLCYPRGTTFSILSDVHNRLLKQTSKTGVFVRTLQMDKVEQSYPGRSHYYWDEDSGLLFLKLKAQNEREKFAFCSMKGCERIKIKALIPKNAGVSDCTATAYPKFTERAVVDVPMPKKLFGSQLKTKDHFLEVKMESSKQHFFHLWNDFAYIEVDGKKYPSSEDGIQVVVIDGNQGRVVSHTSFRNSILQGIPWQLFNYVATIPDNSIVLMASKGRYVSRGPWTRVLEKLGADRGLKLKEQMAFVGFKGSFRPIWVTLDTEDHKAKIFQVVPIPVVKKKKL
Briefly: affinity purification with mass spectrometry; Co-IP of CEMIP from cells (cells not stated), NETN buffer (20 mM Tris HCl pH 8.0, 100 mM NaCl, 1 mM EDTA, 0.5% Nonidet P-40), Protein G agarose beads, overnight at 4 °C; precipitates analysed by NanoLC mass spectrometer.

These are yes or no findings as the source states them, for the method shown. Binding seen in cells or lysates may run through a third protein. These calls come from enrichment with a bait or labelling near it, and not all partners need be listed.

B1: GRAF1, hit of the CEMIP Co-IP with mass-spectrometric peptide sequencing (protein, UniProt Q9UNA1 1-814)
chain: MGLPALEFSDCCLDSPHFRETLKSHEAELDKTNKFIKELIKDGKSLISALKNLSSAKRKFADSLNEFKFQCIGDAETDDEMCIARSLQEFATVLRNLEDERIRMIENASEVLITPLEKFRKEQIGAAKEAKKKYDKETEKYCGILEKHLNLSSKKKESQLQEADSQVDLVRQHFYEVSLEYVFKVQEVQERKMFEFVEPLLAFLQGLFTFYHHGYELAKDFGDFKTQLTISIQNTRNRFEGTRSEVESLMKKMKENPLEHKTISPYTMEGYLYVQEKRHFGTSWVKHYCTYQRDSKQITMVPFDQKSGGKGGEDESVILKSCTRRKTDSIEKRFCFDVEAVDRPGVITMQALSEEDRRLWMEAMDGREPVYNSNKDSQSEGTAQLDSIGFSIIRKCIHAVETRGINEQGLYRIVGVNSRVQKLLSVLMDPKTASETETDICAEWEIKTITSALKTYLRMLPGPLMMYQFQRSFIKAAKLENQESRVSEIHSLVHRLPEKNRQMLQLLMNHLANVANNHKQNLMTVANLGVVFGPTLLRPQEETVAAIMDIKFQNIVIEILIENHEKIFNTVPDMPLTNAQLHLSRKKSSDSKPPSCSERPLTLFHTVQSTEKQEQRNSIINSSLESVSSNPNSILNSSSSLQPNMNSSDPDLAVVKPTRPNSLPPNPSPTSPLSPSWPMFSAPSSPMPTSSTSSDSSPVRSVAGFVWFSVAAVVLSLARSSLHAVFSLLVNFVPCHPNLHLLFDRPEEAVHEDSSTPFRKAKALYACKAEHDSELSFTAGTVFDNVHPSQEPGWLEGTLNGKTGLIPENYVEFL
For the molecule B1, the binding entry is reported as “binds”.
